Source: article PMC9475462
These are yes or no findings as the source states them, for the method shown. Binding seen in cells or lysates may run through a third protein. Some entries that bind do so weakly or less than the wild type. For some assays here: Sequences can lack the tags named with a protein. Blank lines part the entries; values can stand above or below the substance they belong to.

Chains of the proteins cited; added tags and fusions are not shown. Lines headed by an entry give the natural chain unless they say otherwise; changes in a name come on top.
UniProt P14618: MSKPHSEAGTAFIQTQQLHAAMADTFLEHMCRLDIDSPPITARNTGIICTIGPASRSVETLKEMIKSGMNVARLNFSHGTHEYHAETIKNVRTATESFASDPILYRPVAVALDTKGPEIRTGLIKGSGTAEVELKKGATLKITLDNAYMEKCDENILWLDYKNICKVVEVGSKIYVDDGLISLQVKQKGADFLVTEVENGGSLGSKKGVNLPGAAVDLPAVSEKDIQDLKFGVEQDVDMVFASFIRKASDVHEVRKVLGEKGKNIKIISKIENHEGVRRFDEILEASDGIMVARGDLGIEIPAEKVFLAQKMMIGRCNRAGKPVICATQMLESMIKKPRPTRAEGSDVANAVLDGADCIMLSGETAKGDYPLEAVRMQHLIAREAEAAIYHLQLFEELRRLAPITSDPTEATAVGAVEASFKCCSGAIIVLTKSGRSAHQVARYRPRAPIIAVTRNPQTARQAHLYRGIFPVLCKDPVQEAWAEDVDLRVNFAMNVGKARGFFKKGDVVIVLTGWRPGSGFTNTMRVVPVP

Assays:
[1] = biological target: T1, full-length HA-tagged ARHGAP24 (ARH-FL-HA), in HEK293T cells (UniProt Q8N264); experiment: co-IP; HEK293T (HEK293) cells co-transfected with HA-tagged ARHGAP24, FLAG-tagged PKM2 and/or His-tagged WWP1 constructs; IP and western blot
T1 sequence: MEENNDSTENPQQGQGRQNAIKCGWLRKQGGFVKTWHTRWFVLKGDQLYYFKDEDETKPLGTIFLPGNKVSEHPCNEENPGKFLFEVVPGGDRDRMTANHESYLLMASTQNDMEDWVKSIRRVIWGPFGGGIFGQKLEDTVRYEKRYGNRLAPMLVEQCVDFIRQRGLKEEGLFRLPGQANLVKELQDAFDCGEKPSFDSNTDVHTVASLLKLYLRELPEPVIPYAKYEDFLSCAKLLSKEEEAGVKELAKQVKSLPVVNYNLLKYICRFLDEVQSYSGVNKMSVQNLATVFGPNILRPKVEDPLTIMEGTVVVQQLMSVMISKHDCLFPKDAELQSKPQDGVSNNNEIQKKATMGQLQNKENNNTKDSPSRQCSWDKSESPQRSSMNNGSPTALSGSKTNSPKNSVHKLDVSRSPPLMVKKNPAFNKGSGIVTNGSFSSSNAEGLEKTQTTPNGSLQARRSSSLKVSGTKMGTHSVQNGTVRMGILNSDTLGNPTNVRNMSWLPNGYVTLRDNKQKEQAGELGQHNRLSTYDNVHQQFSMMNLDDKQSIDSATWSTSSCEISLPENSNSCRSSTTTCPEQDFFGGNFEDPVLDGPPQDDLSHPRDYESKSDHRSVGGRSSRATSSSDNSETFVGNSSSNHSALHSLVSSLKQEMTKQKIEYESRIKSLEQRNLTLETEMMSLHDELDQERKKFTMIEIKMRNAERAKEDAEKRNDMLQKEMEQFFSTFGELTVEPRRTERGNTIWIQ

[2] = biological target: T2, ARHGAP24 in HCC cells (Figure 6B) (UniProt Q8N264); experiment: co-IP; HCC cells (Figure 6B); cell lines and antibodies not told in the text shown
T2 sequence: T1 sequence

[3] = biological target: T3, FLAG-ARHGAP24 (Rho GTPase activating protein 24) (UniProt Q8N264); experiment: co-IP; HCCLM3 cells transfected with Flag-tagged ARHGAP24, in the presence of MG132
T3 sequence: T1 sequence

[4] = biological target: T4, full-length HA-tagged ARHGAP24 (FL-ARH-HA), in HCCLM3 cells (UniProt Q8N264); experiment: co-IP; HCCLM3 cells transfected with FL-ARH-HA or the deletion mutant ARH-ΔCD-HA; IP and western blot
T4 sequence: T1 sequence

binding [1]: binds
Substance: C-terminal of PKM2, FLAG-tagged (PKM2-CD) (from UniProt P14618 388-531) (domain or fragment)

binding [2]: binds
Substance: PKM2 in HCC cells (Figure 6B) (from UniProt P14618 1-531)

binding [1]: binds
Substance: full-length FLAG-tagged PKM2 (PKM2-FL-FLAG), in HEK293T cells (from UniProt P14618 1-531)

binding [3]: binds
binding [4]: binds
Substance: pyruvate kinase M2 (PKM2), in HCCLM3 cells (from UniProt P14618 1-531)
